Measured values taken from PMC8881624.
Results are given in words; binding and its absence hold for the method and conditions named. Binding seen in cells or lysates may run through a third protein. A result given as binding can be weak or reduced; the word gives no strength. Sequences can lack the tags named with a protein. Blank lines part the entries; values can stand above or below the molecule they belong to.

Chains of the proteins cited; added tags and fusions are not shown. Lines headed by an entry give the natural chain unless they say otherwise; changes in a name come on top.
UniProt Q9USL2: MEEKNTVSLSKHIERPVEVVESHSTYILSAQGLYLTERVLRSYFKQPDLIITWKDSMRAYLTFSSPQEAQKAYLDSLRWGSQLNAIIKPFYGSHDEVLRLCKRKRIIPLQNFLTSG

Assays:
Lsm4-cMyc (S. pombe) = biological target: T1, Lsm4-cMyc (S. pombe) (UniProt O14352); assay: co-IP; S. pombe cell-free extract in TMG(300), antibody-coated protein G Dynabeads (anti-FLAG, anti-V5 or anti-c-Myc), 4 h at 4 °C, western blot; beads also treated with RNase A or Benzonase (15 min, 37 °C); Pof8-Thc1 also in bmc1Δ background
T1 sequence: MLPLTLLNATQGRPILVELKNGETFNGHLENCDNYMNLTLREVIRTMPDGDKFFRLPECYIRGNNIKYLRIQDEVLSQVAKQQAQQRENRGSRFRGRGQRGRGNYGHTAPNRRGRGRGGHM

3xFLAG-Pof8 (S. pombe) = biological target: T2, 3xFLAG-Pof8 (S. pombe) (UniProt O13795); assay: as above
T2 sequence: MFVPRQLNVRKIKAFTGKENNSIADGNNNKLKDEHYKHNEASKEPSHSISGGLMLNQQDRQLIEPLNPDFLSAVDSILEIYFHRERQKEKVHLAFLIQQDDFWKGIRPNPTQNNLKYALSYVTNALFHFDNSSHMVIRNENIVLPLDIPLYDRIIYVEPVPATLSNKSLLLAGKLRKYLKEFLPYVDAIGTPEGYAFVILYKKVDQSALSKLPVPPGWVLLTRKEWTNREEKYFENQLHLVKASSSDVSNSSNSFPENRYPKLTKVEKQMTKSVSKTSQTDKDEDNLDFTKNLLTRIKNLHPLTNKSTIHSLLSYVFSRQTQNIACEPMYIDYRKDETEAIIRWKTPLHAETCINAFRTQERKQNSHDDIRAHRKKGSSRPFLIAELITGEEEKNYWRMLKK

[1] = biological target: 6xHis-Thc1 (recombinant) (S. pombe); assay: pull-down; 6xHis-Thc1 and untagged Pof8 co-expressed in E. coli, cleared lysate on Ni-NTA beads (50 mM sodium phosphate pH 8.0, 300 mM NaCl, 10% glycerol; wash 40 mM imidazole, elution 250 mM imidazole), Coomassie-stained SDS-PAGE

binding (Lsm4-cMyc (S. pombe)): binds | binding (3xFLAG-Pof8 (S. pombe)): binds
Molecule: Thc1-2xV5 (from UniProt Q9USL2)

binding [1]: binds
B1: untagged Pof8 (recombinant) (protein, UniProt O13795 1-402)
chain: T2 sequence
